Measured values published in publication PMC5638853.

Target: T1, flag-tagged transmembrane protein 168 (flag-TMEM168) (mouse) (UniProt Q91VX9)
T1 sequence: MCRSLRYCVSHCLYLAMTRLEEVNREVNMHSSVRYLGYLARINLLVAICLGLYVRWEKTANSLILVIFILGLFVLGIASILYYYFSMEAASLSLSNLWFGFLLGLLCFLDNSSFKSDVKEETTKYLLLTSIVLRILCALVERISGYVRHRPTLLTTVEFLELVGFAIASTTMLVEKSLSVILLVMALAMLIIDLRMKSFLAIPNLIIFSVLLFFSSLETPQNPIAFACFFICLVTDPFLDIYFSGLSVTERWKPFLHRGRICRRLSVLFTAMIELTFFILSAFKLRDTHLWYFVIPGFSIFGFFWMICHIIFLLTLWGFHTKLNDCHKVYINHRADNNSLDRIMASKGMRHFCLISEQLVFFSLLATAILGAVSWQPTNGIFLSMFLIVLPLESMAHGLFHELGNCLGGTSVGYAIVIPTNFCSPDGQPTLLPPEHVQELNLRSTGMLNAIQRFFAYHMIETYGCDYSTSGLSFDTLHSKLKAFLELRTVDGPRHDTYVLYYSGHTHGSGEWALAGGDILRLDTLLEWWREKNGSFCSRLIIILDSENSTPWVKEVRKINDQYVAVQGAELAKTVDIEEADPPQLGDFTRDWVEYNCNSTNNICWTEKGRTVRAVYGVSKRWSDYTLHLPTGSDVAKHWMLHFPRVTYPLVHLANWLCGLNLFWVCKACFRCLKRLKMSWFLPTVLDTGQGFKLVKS
Assay: co-IP; total lysate of COS-7 cells transfected with flag-TMEM168; anti-flag antibody overnight at 4 °C, Protein G Sepharose for 3 h, 3 washes; western blot with anti-OPN

- binding: binds
Substance: osteopontin (OPN)

No constants are given. Whether binding was seen depends on the method and setting. In cells and extracts the contact can be indirect. Binding can be weak; no strength is given. Sequences can lack the tags named with a protein.
